Assay [1] addresses Myc-RBPMS2 (full-length human RBPMS2, N-terminal Myc tag) in DF-1 cells (human) (UniProt Q6ZRY4). Description: proximity ligation; DuoLink in situ PLA in transfected DF-1 cells with mouse anti-HA and rabbit anti-Myc.
For assay [2] the target is unchanged. As to the kind of experiment: co-IP; lysates of transfected DF-1 cells; rabbit anti-Myc on protein A-Sepharose, 4 °C, 1 h, 50 mM Tris pH 8, 150 mM NaCl, 0.4% NP40; blot with anti-HA; also after RNase A (50 μg/ml, 30 min).
The target in assay [3] is Myc-RBPMS2-L40E (chick full-length RBPMS2 L40E, Myc tag, RCAS) (chick) (UniProt Q9W6I1). Description: cross-linking; 4 μg total protein extract of infected DF-1 cells, 0.1% glutaraldehyde in PBS, 4 °C, 10 or 30 s; SDS-PAGE and blot with anti-Myc or anti-GFP.
Assay [4] concerns the target Myc-RBPMS2 (chick full-length RBPMS2, Myc tag, RCAS) (chick) (UniProt Q9W6I1). Described as above.

Protein sequences, listed by entry. Tags and fused reporters are not part of them. Lines headed by an entry give the natural chain unless they say otherwise; changes in a name come on top.
UniProt Q6ZRY4: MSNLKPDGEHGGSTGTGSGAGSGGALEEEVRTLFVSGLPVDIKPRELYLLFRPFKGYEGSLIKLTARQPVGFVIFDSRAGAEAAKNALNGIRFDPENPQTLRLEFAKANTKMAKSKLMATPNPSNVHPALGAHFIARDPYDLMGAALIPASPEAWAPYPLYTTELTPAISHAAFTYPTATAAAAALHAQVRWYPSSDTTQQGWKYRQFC
UniProt Q9W6I1: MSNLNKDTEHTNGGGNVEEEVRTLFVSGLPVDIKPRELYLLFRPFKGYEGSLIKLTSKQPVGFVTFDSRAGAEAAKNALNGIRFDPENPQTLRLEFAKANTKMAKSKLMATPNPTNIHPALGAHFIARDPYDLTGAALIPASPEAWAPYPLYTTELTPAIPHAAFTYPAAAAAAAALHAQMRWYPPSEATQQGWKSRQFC
UniProt P17081: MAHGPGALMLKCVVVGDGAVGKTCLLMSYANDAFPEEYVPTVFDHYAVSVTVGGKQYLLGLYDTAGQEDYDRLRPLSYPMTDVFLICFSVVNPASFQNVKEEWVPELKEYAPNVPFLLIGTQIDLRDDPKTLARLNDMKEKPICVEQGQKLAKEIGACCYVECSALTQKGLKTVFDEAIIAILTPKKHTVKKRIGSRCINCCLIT

These are yes or no findings as the source states them, for the method shown. Binding seen in cells or lysates may run through a third protein. Some results given as binding are weak or reduced against the parent protein; the word gives no strength.

Binding data for three substances are collected here from PMC4150794.

In the case of “HA-TC10 (human small GTPase TC10, HA tag) in DF-1 cells (from UniProt P17081 1-205)”, the binding entry in assay [1] and in assay [2] was “no binding” each time.
For the substance “Myc-RBPMS2-L40E (chick full-length RBPMS2 L40E, Myc tag, RCAS) (from UniProt Q9W6I1 1-200)”, the binding entry in assay [3] is listed as “no binding”.
Consider “Myc-RBPMS2 (chick full-length RBPMS2, Myc tag, RCAS) (from UniProt Q9W6I1 1-200)”, for which the binding entry in assay [4] is reported as “binds”.
